Laboratory results published in PMC4795781.

Target: T1, cytoplasmic domains of Drosophila Syndecan (Sdc), yeast two-hybrid bait (Drosophila) (UniProt P49415)
T1 sequence: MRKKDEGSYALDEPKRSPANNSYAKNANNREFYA
Assay: two-hybrid; Matchmaker Two-Hybrid System 3 (Clontech); cytoplasmic Sdc in pGBKT7 as bait in AH109 yeast; library of Drosophila embryonic cDNA fragments in pACT2 as prey; selection on high stringency plates (-Leu -Trp -Ade -His), 30°C, 6-7 days; library screen, hits obtained multiple independent times

Row | binding | Substance
1 | binds | Twin of M4 (Drosophila)
2 | binds | Glutamate Receptor Interacting Protein (GRIP) (Drosophila)
3 | binds | ELMO / Ced-12 (Drosophila)
4 | binds | Daughters against DPP (DAD) (Drosophila)
5 | binds | CG10005 (Drosophila)

Results are given in words; binding and its absence hold for the method and conditions named. Binding calls can cover weak binding; strength is not graded here.
